{"source": "PubChem BioAssay AID1347076", "about": "(National Center for Advancing Translational Sciences (NCATS), 2019)", "note": "The whole screen tested about 400,000 compounds, of which about 13,000 (3.2%) were called active. The shares of active, inactive and inconclusive entries below differ from those in the screen. Calls follow the shape of the dose curve; as a rule, active = well fitted cell-killing curve with a large enough effect; inconclusive = small, poorly fitted or top-dose-only effect, or effect the other way; inactive = flat fitted curve, though single readings scatter. Where the call is inconclusive, the potency comes from a doubtful curve fit. % is scaled to controls: 0 for no effect and ±100 for the full control effect; potency is read from the fitted curve at half-maximal effect.", "data": [{"assay": "qHTS assay for MDR1-selective chemotherapeutics: Primary screen using the drug-selected MDR subline cells KB-V1; also: nearly all actives have a fitted effect of over 60% in size", "conditions": "KB-V1 MDR cells viability, CellTiter-Glo, 72 h; activity change, negative = cytotoxicity: at 46.1 µM (top of the series)", "in_short": "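qHTS viability screen in drug-selected KB-V1 MDR cells: 72 h compound treatment at 37 degrees C, ATP luminescence end point.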", "values": [{"smiles": "CCC(C(=O)NC1CCCCC1)N(C(=O)c1snc(C(N)=O)c1N)c1ccc(OC)cc1OC", "note": "(stereo not drawn)", "Potency": "inconclusive: 5.8 µM [cytotoxic, full curve]"}, {"smiles": "O=C(CCc1ccc(O)cc1)NN=Cc1cc(Br)ccc1O", "Potency": "inconclusive: 20.6 µM [cytotoxic, partial curve, poor fit]"}, {"smiles": "CN(C(=O)c1ccc2c(c1)N(Cc1ccccc1F)C(=O)c1ccccc1S2(=O)=O)C1CCCCC1", "Potency": "inconclusive: 29.1 µM [cytotoxic, single point]"}, {"smiles": "Cc1sc2ncnc(N3CCC(C(=O)Nc4ccc(Br)cc4Br)CC3)c2c1C", "Potency": "active: 5.8 µM"}, {"smiles": "NCCC1CN(C(=O)OCc2ccccc2)c2ccccc21", "note": "(stereo not drawn)", "activity change, negative = cytotoxicity": "inactive: -1.31%"}, {"smiles": "COc1ccc(CCN(C)C(=O)CCc2nnc(-c3ccccc3)o2)cc1OC", "Potency": "inconclusive: 16.4 µM [cytotoxic, single point]"}, {"smiles": "COc1ccc(CCNC(=O)CC(c2ccccc2)c2cccc(C)c2O)cc1OC", "note": "(stereo not drawn)", "Potency": "inconclusive: 10.3 µM [cytotoxic, partial curve, poor fit]"}, {"smiles": "O=C(NC12CC3CC(CC(C3)C1)C2)N1CC2Cc3cccc(=O)n3C(C2)C1", "note": "(stereo not drawn)", "activity change, negative = cytotoxicity": "inactive: -9.85%"}, {"smiles": "COc1ccc(C2CC(=O)c3c([nH]c(C(=O)OC4CCCCCC4)c3C)C2)cc1OC", "note": "(stereo not drawn)", "activity change, negative = cytotoxicity": "inactive: 6.12%"}, {"smiles": "COc1cccc(CNC(=O)CCCn2nc(C)n3c(cc4sccc43)c2=O)c1", "Potency": "inconclusive: 29.1 µM [cytotoxic, single point]"}, {"smiles": "C/C(=N\\NC(=S)Nc1ccccc1C)c1cc2ccccc2o1", "Potency": "inconclusive: 20.6 µM [cytotoxic, single point]"}, {"smiles": "O=S(=O)(c1ccccc1F)N1CCC(c2nc3ccccc3[nH]2)CC1", "Potency": "inconclusive: 10.3 µM [cytotoxic, partial curve]"}, {"smiles": "COc1ccc(Cn2ccc3nc(C)c(C(=O)NCc4ccc(OC)cc4OC)cc3c2=O)cc1", "activity change, negative = cytotoxicity": "inactive: 0.386%"}, {"smiles": "CCOC(=O)c1c(NC(=O)c2ccc(S(=O)(=O)N(C)CC3CCCO3)cc2)sc2c1CC(C)(C)NC2(C)C", "note": "(stereo not drawn)", "Potency": "inconclusive: 18.4 µM [rising, single point]"}, {"smiles": "O=C(NCC(=O)N(Cc1cccs1)C(C(=O)NC1CCCCC1)c1ccco1)c1ccco1", "note": "(stereo not drawn)", "Potency": "inconclusive: 8.2 µM [cytotoxic, partial curve, poor fit]"}, {"smiles": "COc1ccc(-c2cc(C(=O)N3CCN(c4ccc(F)cc4)CC3)no2)cc1OC", "Potency": "inconclusive: 6.51 µM [cytotoxic, partial curve]"}, {"smiles": "Cc1ccc(SCCC(=O)OCC(=O)Nc2ccc(C(N)=O)cc2)cc1", "Potency": "inconclusive: 29.1 µM [rising, single point]"}, {"smiles": "COc1ccc(S(=O)(=O)NCCC(=O)NC2CCCCC2C)cc1[N+](=O)[O-]", "note": "(stereo not drawn)", "Potency": "inconclusive: 0.231 µM [rising, full curve, poor fit]"}]}]}
